Laboratory results published in the supplement of paper PMC12819154, “High-throughput peptide-centric local stability assay extends protein–ligand identification to membrane proteins, tissues and bacteria” (Nature Structural & Molecular Biology, 2025).
This is one part of the list. Most values lie at the level of the controls, where differences are scatter.

The chains behind the UniProt entries cited, without tags or fusion partners. Where a name states a change or a piece, a line headed by the entry shows the natural chain unless it says otherwise.
UniProt Q6IQ21: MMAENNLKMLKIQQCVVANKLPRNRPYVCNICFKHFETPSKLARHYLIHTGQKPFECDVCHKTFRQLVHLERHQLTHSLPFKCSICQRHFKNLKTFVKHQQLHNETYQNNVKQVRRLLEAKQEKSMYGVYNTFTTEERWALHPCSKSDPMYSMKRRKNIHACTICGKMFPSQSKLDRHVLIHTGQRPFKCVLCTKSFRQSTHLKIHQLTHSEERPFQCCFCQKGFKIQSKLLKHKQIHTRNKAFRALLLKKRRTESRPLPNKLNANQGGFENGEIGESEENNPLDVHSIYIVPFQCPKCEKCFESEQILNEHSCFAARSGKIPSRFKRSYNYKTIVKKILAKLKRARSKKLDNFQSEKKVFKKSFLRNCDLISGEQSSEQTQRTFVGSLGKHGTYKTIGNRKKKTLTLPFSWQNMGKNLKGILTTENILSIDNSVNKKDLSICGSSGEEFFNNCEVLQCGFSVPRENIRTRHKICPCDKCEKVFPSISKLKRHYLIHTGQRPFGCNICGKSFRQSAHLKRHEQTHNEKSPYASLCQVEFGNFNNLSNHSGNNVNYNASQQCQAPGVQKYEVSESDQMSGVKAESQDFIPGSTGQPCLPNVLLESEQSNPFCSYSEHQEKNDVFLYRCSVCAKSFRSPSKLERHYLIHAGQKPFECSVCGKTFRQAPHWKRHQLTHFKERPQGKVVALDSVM
UniProt Q6P3W2: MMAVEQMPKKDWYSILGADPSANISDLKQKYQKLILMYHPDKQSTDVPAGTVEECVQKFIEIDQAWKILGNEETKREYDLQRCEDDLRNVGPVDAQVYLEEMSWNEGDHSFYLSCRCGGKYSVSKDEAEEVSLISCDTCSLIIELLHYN
UniProt Q6NX49: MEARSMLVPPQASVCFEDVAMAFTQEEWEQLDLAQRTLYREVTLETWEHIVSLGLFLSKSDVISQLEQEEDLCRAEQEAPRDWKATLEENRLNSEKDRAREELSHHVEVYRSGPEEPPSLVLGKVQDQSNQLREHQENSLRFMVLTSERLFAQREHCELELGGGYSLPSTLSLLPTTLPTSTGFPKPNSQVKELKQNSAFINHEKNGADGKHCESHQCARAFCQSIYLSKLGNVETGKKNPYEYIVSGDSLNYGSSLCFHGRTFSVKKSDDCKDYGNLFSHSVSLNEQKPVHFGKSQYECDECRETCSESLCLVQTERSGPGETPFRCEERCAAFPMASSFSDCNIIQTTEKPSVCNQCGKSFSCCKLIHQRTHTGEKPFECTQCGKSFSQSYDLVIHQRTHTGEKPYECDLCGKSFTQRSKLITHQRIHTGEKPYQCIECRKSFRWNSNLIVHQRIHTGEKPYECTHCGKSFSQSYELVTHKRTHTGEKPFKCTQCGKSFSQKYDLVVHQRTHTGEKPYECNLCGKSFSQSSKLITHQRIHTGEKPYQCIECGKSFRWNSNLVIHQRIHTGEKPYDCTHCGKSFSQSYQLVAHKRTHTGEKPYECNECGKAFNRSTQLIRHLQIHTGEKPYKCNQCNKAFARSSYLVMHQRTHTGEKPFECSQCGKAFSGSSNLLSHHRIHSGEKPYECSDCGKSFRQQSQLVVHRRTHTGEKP
UniProt Q6TFL3: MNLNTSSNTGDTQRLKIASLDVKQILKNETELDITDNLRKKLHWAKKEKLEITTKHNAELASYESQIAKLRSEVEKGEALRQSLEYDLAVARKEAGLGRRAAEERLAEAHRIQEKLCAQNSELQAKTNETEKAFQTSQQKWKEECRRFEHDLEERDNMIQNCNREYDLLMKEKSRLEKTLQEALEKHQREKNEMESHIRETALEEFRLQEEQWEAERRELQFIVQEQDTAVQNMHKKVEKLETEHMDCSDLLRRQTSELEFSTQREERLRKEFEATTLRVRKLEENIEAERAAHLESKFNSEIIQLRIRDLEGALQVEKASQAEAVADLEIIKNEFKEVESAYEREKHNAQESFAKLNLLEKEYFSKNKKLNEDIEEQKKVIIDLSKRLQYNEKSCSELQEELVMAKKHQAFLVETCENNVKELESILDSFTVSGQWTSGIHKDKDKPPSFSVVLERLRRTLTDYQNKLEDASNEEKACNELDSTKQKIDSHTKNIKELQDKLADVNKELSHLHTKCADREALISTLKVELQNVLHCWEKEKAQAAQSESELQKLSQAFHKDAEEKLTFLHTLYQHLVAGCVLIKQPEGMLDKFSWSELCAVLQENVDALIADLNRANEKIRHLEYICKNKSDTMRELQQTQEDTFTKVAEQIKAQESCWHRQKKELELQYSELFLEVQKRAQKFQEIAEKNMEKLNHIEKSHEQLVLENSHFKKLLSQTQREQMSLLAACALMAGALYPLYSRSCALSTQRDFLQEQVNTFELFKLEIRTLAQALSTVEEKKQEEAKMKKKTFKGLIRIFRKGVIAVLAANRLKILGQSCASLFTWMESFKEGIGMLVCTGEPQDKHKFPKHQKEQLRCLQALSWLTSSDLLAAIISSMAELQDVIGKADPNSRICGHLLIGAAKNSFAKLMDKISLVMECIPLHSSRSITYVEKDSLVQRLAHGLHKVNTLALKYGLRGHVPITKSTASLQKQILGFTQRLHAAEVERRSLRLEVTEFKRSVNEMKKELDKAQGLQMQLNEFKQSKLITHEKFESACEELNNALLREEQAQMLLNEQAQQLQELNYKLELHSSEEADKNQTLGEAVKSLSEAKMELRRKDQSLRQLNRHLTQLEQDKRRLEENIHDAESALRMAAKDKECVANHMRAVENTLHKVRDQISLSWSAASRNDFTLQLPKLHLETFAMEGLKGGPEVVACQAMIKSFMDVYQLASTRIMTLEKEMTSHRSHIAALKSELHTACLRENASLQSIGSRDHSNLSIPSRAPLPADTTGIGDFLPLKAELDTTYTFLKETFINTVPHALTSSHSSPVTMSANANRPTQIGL
UniProt Q5W0B1: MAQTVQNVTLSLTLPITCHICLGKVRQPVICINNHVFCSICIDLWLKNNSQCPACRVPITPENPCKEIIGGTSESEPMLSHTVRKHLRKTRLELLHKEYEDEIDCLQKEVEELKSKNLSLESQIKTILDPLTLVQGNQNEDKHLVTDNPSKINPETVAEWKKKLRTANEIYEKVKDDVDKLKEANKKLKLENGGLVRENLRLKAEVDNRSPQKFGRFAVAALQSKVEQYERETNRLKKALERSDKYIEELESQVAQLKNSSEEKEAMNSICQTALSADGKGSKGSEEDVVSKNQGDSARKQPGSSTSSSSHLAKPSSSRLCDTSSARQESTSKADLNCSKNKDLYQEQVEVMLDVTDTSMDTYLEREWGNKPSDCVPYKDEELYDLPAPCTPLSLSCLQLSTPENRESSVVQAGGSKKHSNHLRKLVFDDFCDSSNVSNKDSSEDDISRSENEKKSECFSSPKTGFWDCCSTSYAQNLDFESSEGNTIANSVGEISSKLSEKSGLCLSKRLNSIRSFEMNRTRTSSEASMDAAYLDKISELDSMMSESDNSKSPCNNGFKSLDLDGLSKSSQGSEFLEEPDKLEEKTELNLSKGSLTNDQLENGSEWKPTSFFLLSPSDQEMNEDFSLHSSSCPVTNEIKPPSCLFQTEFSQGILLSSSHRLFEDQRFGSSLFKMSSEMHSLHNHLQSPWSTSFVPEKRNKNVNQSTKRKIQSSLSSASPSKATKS
UniProt Q6L8Q7: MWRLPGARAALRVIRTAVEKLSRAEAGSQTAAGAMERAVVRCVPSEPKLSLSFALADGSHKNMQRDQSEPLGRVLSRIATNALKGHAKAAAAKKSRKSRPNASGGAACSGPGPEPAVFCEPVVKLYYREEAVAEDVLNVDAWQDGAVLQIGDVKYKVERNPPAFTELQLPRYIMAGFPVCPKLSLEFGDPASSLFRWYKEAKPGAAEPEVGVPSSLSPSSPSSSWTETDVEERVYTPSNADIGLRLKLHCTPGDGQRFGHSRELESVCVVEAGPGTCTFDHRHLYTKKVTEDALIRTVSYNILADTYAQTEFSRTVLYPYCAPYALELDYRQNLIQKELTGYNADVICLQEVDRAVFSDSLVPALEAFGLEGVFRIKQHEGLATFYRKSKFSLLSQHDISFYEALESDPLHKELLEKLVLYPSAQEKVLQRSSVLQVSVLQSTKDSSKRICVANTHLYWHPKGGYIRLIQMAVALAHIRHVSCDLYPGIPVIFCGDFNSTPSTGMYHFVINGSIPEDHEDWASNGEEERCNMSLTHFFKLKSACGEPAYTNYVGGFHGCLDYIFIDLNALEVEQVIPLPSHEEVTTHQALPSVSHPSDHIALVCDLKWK
UniProt Q6NZ36: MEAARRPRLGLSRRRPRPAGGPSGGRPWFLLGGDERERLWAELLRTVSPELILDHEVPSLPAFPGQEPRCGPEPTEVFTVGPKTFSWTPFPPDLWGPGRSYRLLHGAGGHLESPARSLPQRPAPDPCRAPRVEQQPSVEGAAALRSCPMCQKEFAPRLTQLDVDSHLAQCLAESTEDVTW
UniProt Q6P582, whole entry: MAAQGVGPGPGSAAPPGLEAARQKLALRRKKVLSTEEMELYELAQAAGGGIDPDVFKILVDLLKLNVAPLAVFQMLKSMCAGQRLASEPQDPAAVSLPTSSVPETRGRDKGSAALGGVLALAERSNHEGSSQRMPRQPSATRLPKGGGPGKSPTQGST
UniProt Q6GYQ0: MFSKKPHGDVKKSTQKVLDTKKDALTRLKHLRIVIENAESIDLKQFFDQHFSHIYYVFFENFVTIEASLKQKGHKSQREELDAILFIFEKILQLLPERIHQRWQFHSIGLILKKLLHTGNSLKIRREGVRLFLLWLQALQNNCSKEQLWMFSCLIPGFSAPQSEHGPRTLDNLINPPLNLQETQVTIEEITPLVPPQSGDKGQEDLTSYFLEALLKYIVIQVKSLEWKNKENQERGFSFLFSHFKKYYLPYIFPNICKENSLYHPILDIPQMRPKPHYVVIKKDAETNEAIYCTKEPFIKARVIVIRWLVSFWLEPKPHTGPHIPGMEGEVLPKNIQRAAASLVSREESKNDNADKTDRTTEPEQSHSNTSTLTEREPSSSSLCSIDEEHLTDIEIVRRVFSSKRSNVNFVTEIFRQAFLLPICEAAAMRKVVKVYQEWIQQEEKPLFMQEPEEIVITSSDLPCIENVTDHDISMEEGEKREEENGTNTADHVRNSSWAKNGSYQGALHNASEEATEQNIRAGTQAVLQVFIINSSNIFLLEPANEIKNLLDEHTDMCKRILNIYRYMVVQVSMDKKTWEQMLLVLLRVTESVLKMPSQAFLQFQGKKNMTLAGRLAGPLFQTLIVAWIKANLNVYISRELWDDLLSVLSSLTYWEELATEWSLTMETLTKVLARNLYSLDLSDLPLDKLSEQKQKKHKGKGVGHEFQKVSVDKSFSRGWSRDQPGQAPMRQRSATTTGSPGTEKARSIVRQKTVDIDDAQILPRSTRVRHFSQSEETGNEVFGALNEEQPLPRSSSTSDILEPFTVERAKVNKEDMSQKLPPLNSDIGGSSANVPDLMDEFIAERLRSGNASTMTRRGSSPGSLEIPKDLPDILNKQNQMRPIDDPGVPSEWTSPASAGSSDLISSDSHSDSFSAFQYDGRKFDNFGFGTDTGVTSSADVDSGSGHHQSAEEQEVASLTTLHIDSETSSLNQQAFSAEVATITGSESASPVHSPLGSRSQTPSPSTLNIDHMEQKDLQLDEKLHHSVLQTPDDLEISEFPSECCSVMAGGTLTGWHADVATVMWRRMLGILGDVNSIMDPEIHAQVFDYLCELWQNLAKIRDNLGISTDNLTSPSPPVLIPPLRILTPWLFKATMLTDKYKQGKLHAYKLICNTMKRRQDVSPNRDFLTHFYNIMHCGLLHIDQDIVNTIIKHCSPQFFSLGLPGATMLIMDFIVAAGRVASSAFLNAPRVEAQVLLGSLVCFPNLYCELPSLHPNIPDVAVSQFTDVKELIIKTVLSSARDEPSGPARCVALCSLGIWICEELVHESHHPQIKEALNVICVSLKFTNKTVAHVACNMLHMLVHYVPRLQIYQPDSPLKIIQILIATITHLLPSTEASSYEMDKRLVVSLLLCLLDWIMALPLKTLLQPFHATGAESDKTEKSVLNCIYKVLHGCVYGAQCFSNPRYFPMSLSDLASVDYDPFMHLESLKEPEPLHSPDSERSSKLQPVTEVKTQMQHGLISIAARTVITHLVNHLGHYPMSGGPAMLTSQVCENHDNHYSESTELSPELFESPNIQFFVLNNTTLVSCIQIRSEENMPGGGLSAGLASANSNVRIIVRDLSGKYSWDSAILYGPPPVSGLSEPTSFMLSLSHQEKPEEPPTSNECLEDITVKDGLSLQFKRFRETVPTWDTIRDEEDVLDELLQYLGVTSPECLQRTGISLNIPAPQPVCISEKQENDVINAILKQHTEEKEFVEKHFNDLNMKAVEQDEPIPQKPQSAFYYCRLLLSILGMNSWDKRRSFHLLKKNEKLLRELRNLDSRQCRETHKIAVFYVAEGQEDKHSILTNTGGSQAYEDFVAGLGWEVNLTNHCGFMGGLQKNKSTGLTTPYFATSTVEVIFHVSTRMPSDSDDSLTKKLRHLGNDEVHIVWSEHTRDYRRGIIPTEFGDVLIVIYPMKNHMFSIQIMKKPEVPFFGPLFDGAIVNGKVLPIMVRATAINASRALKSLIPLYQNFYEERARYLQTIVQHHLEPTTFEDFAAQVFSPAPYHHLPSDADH

The targets below were run with Cc1nc(Nc2ncc(C(=O)Nc3c(C)cccc3Cl)s2)cc(N2CCN(CCO)CC2)n1 [dasatinib] (assay: log2 fold change of tryptic peptide abundance, ligand vs vehicle (limited proteolysis) (log2 ratio); higher = more trypsin-susceptible (destabilized)). Details: ligand concentration: 5 uM; sample: K562 cleared lysate.

Q: For “SNRNP48 (peptide sequence: FVCDLTQADR, peptide start residue: 152) (UniProt Q6IEG0)”, which log2 fold change is on record?
A: Its log2 fold change is 0.0999.

Q: For “MRPL14 (peptide sequence: ALIVGHCMPGPR, peptide start residue: 84) (UniProt Q6P1L8)”, which log2 fold change is on record?
A: The log2 fold change was -0.0578.

Q: With “DENND1B (peptide sequence: GGALFNTAMTK, peptide start residue: 429) (UniProt Q6P3S1)” as the target, how does the log2 fold change read?
A: Its log2 fold change is -0.531.

Q: Which log2 fold change does the source give for “ZNF770 (peptide sequence: GILTTENILSIDNSVNKK, peptide start residue: 421) (UniProt Q6IQ21)” here?
A: The log2 fold change was 0.134.

Q: How did the log2 fold change turn out when “ADNP2 (peptide sequence: MFHAPVRK, peptide start residue: 126) (UniProt Q6IQ32)” was run?
A: The log2 fold change was 0.551.

Q: With “LRSAM1 (peptide sequence: DSPDGPTDR, peptide start residue: 233) (UniProt Q6UWE0)” as the target, how does the log2 fold change read?
A: The log2 fold change was 0.149.

Q: “SYCE2 (peptide sequence: ISHLETELK, peptide start residue: 139) (UniProt Q6PIF2)” was tested. Which log2 fold change did it give?
A: Its log2 fold change is 0.28.

Q: With “LIN54 (peptide sequence: ADSNTTVKPAFPSGLQK, peptide start residue: 85) (UniProt Q6MZP7)” as the target, how does the log2 fold change read?
A: The log2 fold change was -0.322.

Q: How did the log2 fold change turn out when “UniProt Q6IN85 (peptide sequence: GTGHVSSGYVER, peptide start residue: 23)” was run?
A: The log2 fold change was 0.255.

Q: With “FBXO42 (peptide sequence: RGSLPDQK, peptide start residue: 486) (UniProt Q6P3S6)” as the target, how does the log2 fold change read?
A: Its log2 fold change is -0.112.

Q: “DNAJC24 (peptide sequence: LILMYHPDK, peptide start residue: 34) (UniProt Q6P3W2)” was tested. Which log2 fold change did it give?
A: Its log2 fold change is 0.38.

Q: With “INTS3 (peptide sequence: ACQEDDVR, peptide start residue: 730) (UniProt Q68E01)” as the target, how does the log2 fold change read?
A: The log2 fold change was -0.428.

Q: “FAHD2B (peptide sequence: EQNVPVPKEPIIFSK, peptide start residue: 121) (UniProt Q6P2I3)” was tested. Which log2 fold change did it give?
A: Its log2 fold change is -0.152.

Q: Which log2 fold change does the source give for “ZFAND6 (peptide sequence: ENPVVVGEK, peptide start residue: 196) (UniProt Q6FIF0)” here?
A: The log2 fold change was 0.0685.

Q: “UniProt Q6NX49 (peptide sequence: SGPEEPPSLVLGK, peptide start residue: 112)” was tested. Which log2 fold change did it give?
A: The log2 fold change was 0.428.

Q: How did the log2 fold change turn out when “UniProt Q6TFL3 (peptide sequence: ECVANHMRAVENTLHKVR, peptide start residue: 1141)” was run?
A: The log2 fold change was 0.524.

Q: Which log2 fold change does the source give for “UniProt Q68DI1 (peptide sequence: EGPYVCSDSGK, peptide start residue: 233)” here?
A: The log2 fold change was 0.277.

Q: For “ELMSAN1 (peptide sequence: QRPRPEPLIIPTK, peptide start residue: 602) (UniProt Q6PJG2)”, which log2 fold change is on record?
A: The log2 fold change was -0.132.

Q: With “EDC4 (peptide sequence: VKIQPVAK, peptide start residue: 118) (UniProt Q6P2E9)” as the target, how does the log2 fold change read?
A: The log2 fold change was 0.193.

Q: With “UniProt Q5W0B1 (peptide sequence: VKDDVDKLK, peptide start residue: 174)” as the target, how does the log2 fold change read?
A: Its log2 fold change is -0.382.

Q: With “PDE12 (peptide sequence: YIMAGFPVCPK, peptide start residue: 172) (UniProt Q6L8Q7)” as the target, how does the log2 fold change read?
A: Its log2 fold change is 0.434.

Q: How did the log2 fold change turn out when “UniProt Q5W0Q7 (peptide sequence: SVEIEKDAQLK, peptide start residue: 693)” was run?
A: Its log2 fold change is -0.385.

Q: How did the log2 fold change turn out when “FAAP20 (peptide sequence: SLPQRPAPDPCRAPR, peptide start residue: 117) (UniProt Q6NZ36)” was run?
A: The log2 fold change was 0.0595.

Q: How did the log2 fold change turn out when “SIGIRR (peptide sequence: SSEVDVSDLGSR, peptide start residue: 382) (UniProt Q6IA17)” was run?
A: Its log2 fold change is -0.11.

Q: With “CC2D1A (peptide sequence: SARPLHSLSVLAFDQER, peptide start residue: 841) (UniProt Q6P1N0)” as the target, how does the log2 fold change read?
A: The log2 fold change was -0.252.

Q: How did the log2 fold change turn out when “UniProt Q6P582 (peptide sequence: GSAALGGVLALAER, peptide start residue: 111)” was run?
A: Its log2 fold change is 0.0948.

Q: Which log2 fold change does the source give for “UniProt Q6GYQ0 (peptide sequence: DLPDILNK, peptide start residue: 870)” here?
A: The log2 fold change was -0.211.

Q: With “CRTC1 (peptide sequence: QAWDTKK, peptide start residue: 202) (UniProt Q6UUV9)” as the target, how does the log2 fold change read?
A: Its log2 fold change is -0.224.
